The numbers were not newly measured in patent US10877035B2, “Advanced drug development and manufacturing” (ICAGEN, LLC, priority 2006, dated 2020), which cites them from elsewhere.

Each structure is given as a SMILES string.

The target of this series is alpha-1-adrenergic (NAa1) receptors. The settings on record: reported; cited from earlier work.

Consider `Cc1cc2c(s1)Nc1ccccc1N=C2N1CCN(C)CC1` [olanzapine], for which the pKi is on record as 6.3-7.6.
